## Percent effect of library compounds

The chains behind the UniProt entries cited, without tags or fusion partners. Residues count along the entry.
UniProt A4I591, 1-473: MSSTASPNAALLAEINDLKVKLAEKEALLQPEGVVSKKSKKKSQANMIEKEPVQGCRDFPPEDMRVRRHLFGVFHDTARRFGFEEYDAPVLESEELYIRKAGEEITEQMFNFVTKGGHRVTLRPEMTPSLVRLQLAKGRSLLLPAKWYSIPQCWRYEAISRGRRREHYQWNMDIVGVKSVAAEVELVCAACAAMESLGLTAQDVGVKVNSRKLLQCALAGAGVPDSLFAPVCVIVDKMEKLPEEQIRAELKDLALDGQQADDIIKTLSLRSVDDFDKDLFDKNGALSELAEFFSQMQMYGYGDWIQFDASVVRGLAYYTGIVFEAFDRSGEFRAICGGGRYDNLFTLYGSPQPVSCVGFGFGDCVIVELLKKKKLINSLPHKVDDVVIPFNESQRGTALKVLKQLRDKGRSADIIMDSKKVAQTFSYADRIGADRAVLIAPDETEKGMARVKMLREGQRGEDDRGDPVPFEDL
UniProt P9WFT3, whole entry: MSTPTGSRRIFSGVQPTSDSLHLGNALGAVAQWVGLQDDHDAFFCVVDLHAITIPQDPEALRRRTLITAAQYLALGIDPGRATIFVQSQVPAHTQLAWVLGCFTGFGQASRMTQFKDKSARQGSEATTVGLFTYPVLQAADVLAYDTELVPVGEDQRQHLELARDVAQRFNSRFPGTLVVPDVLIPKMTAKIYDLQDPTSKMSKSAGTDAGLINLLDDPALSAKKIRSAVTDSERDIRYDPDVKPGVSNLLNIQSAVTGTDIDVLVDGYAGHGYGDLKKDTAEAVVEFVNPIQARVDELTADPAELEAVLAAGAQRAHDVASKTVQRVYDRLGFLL

The values are deposited in ChEMBL (CHEMBL3988442, “University of Dundee, Small-Polar-MMV Screening Library” (2021)).

Each number is a percent effect as filed.
The controls that fix the scale are not given in the record; negative values are as filed.
The compounds are a random part of those screened.
A dash means the value is not listed here; it may have been measured.

LiHisRS: 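Enzyme assay of histidyl-tRNA synthetase; the read-out is not stated. Target: Histidine-tRNA ligase, Leishmania infantum (UniProt A4I591). Tested at 30 µM. Higher reads as stronger inhibition (inferred: compounds with an IC50 in retests scored well above the rest). The assay is labelled LdHisRS but filed under L. infantum. About 69,000 compounds were tested under these conditions; 0.6% (about 410) showed 50% or more at least once.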
T. brucei: 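Whole-parasite assay of Trypanosoma brucei over 72 hours; the read-out is not stated. Concentration: 30 µM. Higher reads as stronger inhibition (inferred: compounds with an IC50 in retests scored well above the rest). Values scatter widely below zero; nearly all retest evidence comes from the higher of the two concentrations used. Size under these conditions: about 64,000 compounds, about 940 of them at 50% or above in at least one test.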
MtTrpRS: 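Enzyme assay of tryptophanyl-tRNA synthetase; the read-out is not stated. Target: Tryptophan-tRNA ligase, Mycobacterium tuberculosis (UniProt P9WFT3). Concentration: 10 µM. Direction is not recorded; retested compounds ran higher, which suggests that high means inhibition. Size under these conditions: about 65,000 compounds, about 64 of them at 50% or above in at least one test.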

SMILES	LiHisRS	T. brucei	MtTrpRS
OCCN1CCC(F)(F)C2(CCN(c3cnccn3)C2)C1 (centres undefined)	9.434	-	-
c1cnnc(N2CCCC2CNCc2nc(-c3ccoc3)no2)c1 (centres undefined)	26.85	-1.913	15.11
Cc1c(C(=O)O)sc2nc(C(F)(F)F)ccc12	11.67	-17.44	-6.621
O=C(O)C(F)(F)F.O=S(=O)(NCC1OCCc2cn(CC3CCOCC3)nc21)C1CC1 (centres undefined)	-	-12.48	-
O=C(C1CC=CC1)N1CCC2(CCC(=O)N2Cc2cccc(F)c2)CC1	36.11	16.22	-4.74
COc1cc(N2C[C@@H]3COC[C@]3(COCc3ccncc3)C2)ncn1	11.93	-	0.6876
CCc1c(O)nc(SCC(=O)c2ccccc2)n(-c2ccccc2)c1=O	7.692	-15.6	-3.849
Cc1cc(C)n(CCNCc2cc(-c3ccc(F)cc3)c[nH]c2=O)n1	10.74	3.016	-8.925
NC[C@H]1CC[C@H](c2c(C(N)=O)sc3ccccc32)CC1	12.68	-	-6.861
Cc1ncc(CN2CCCC(O)(c3ccc(F)cc3)CC2)n1C.O=C(O)CC(O)(CC(=O)O)C(=O)O (centres undefined)	-	5.795	-
O=C(O)c1ccccc1CN1CCOC(CCc2ccncn2)C1 (centres undefined)	22.11	10.17	2.261
Cn1nnc2c1CCN(C(=O)CC1CC1)C2COCCN1CCCC1 (centres undefined)	17.14	-6.943	5.533
CC(C)CCN(CCC(C)C)Cc1nc2c(cnn2C)c(=O)[nH]1	15.74	99.67	-4.412
Cn1cnc(-c2nc(C(=O)NC3CC3)c3ccccn23)c1	18	-20.51	-6.623
Cc1c(C(=O)O)nnn1Cc1cccc(C(F)(F)F)c1	13.33	-33.13	1.273
N#Cc1cc2n(n1)CCN(C(=O)CCc1c[nH]c3ccccc13)C2	9.167	-	3.618
O=C(NCC1CC1)c1ccc(NC(=O)c2ccco2)cc1	15.96	-9.56	-4.645
CSCC(C)(O)CNC(=O)c1cc(Cl)ccc1Cl (centres undefined)	13.22	-11.36	-3.909
Cc1nc(C)n(CC2CCCN2CC(=O)NCc2ccco2)n1 (centres undefined)	9.615	-79.02	0.9266
Cn1nc(C(=O)NCc2ccccc2C(F)(F)F)c2c1CCS(=O)(=O)C2	15.52	-21.16	3.238
CCc1nc(CC(=O)N2CCC(C(=O)N(CC)CC)CC2)cs1	0	-28.56	-5.826
Cc1nn(C)c(N(C)C)c1CNCc1cccc(CN(C)C(C)C)c1	18.87	-3.178	-4.191
COc1ccc2nnc(CCC(=O)Nc3nc(C)c(C)s3)n2n1	18.68	-1.489	1.359
Cc1nn(C)c(C)c1NC(=O)c1cccc(CN2CCS(=O)(=O)CC2)c1	18.48	-6.976	0.9331
CCn1nc2c(cc1=O)CN(Cc1nc(N)c3ccccc3n1)CC2	38.46	-167.8	-1.069
Cc1cc(C)c2c(c1)C(NCc1nnc3n1CCC3)CCCO2 (centres undefined)	3.03	-15.14	-6.002
Cc1ccc(C(=O)NCc2ccnc(N3CCN(C)CC3)c2)cn1	6.494	25.99	0.2337
O=C(NC1CC1)c1cc(NC(=O)N2CCCC2)ccc1Cl	12.8	-54.46	-3.16
Cc1ccc(C2(CN3CCN(c4ncccn4)CC3)CCNCC2)nc1	11.11	-25.8	-3.645
CC(C)C(C)n1nccc1NC(=O)Cn1cnc2ccccc21 (centres undefined)	15.22	-26.52	-1.125
Cc1ccccc1NC(=O)Nc1cc(N2CCCC2)ncn1	-5.217	-35.39	-0.3799
c1coc(CN2CC[C@@H]3O[C@@H](COCc4ccncc4)CC[C@@H]32)c1	20.21	-	2.886
CCn1ccnc1CNCc1ccc(C)cc1OC(C)(C)C	10	59.89	-3.35
Cc1csc2c(N3CCC(NCCCC4CCOC4)CC3)ncnc12 (centres undefined)	4	-28.35	-7.029
COCCN1CCC(NC(=O)NCC2(c3ccccc3)CC2)C1 (centres undefined)	11.29	-42.98	0.5482
O=C(c1csnn1)N1CCc2ccccc21	12	-44.2	-2.006
Cc1ccc(F)cc1C(=O)N1C[C@@H](CN2CCOCC2)[C@@H](CO)C1	20.95	40.58	2.256
CC(=O)N1CCCC1c1nc(C)no1 (centres undefined)	7.246	-21.86	-
c1cnn(Cc2nnc3n2CCCN(c2nccs2)C3)c1	11.11	-	12.34
Cc1noc(C(C)C)c1C(=O)NCc1cccc(CN(C)C)c1	6.957	-13.5	6.719
O=C(O)C(F)(F)F.c1ccc(N2CCC3(CCCN(c4ncccn4)C3)C2)nc1 (centres undefined)	-	-14.23	-
CCc1n[nH]c(C2CN(C(=O)c3ccnc(N(C)C)c3)CCO2)n1 (centres undefined)	6.195	-	3.135

3 of the entries, repeated:

* CCc1nc(CC(=O)N2CCC(C(=O)N(CC)CC)CC2)cs1 | LiHisRS: 0%; T. brucei: -28.56%; MtTrpRS: -5.826%
* O=C(C1CC=CC1)N1CCC2(CCC(=O)N2Cc2cccc(F)c2)CC1 | LiHisRS: 36.11%; T. brucei: 16.22%; MtTrpRS: -4.74%
* Cn1nnc2c1CCN(C(=O)CC1CC1)C2COCCN1CCCC1 (centres undefined) | LiHisRS: 17.14%; T. brucei: -6.943%; MtTrpRS: 5.533%